{"source": "patent US6723897B2", "about": "“Methods for controlling gibberellin levels” (Monsanto Technology, LLC, priority 1998, dated 2004)", "experiment": "Endogenous GA1 and GA4 levels in mature soybean seeds (GC/MS)", "design": "species or system Glycine max"}
{"smiles": "C=C1C[C@]23C[C@@]1(O)CC[C@H]2[C@@]12CC[C@H](O)[C@@](C)(C(=O)O1)[C@H]2[C@@H]3C(=O)O", "note": "[GA1]", "values": [{"measurement": "level in mature A3237 soybean seeds", "setting": "purification Method B", "result": 0.14, "unit": "ng/gfwt"}]}
{"smiles": "C=C1C[C@]23C[C@H]1CC[C@H]2[C@@]12CC[C@H](O)[C@@](C)(C(=O)O1)[C@H]2[C@@H]3C(=O)O", "note": "[GA4]", "values": [{"measurement": "level in mature A3237 soybean seeds", "setting": "based on three experiments", "result": 0.33, "unit": "ng/g fwt"}, {"measurement": "level in mature A3237 soybean seeds", "setting": "purification Method A", "result": 0.33, "unit": "ng/gfwt"}]}
